Laboratory results: PubChem BioAssay AID1508597 (Cure First, 2020)

Test: 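Genes whose silencing sensitises or protects ovarian cancer cells against rucaparib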 (primary screen)
Cells: human ovarian carcinoma lines grown from tumours: OCI-P5x (papillary serous) and OCI-C5x (clear cell)
Knock-down reagent: siRNA pool against human genes, 1.25 pmol siRNA per well
Timing: 72 h or 96 h, depending on the cell culture
Challenge: rucaparib 20 µM (about IC30) or vehicle, present until read-out
Rucaparib or vehicle: Vehicle
Cell line: OCI-C5x (clear cell)
Read-out: 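Luminescent ATP-based viability assay read 72 or 96 h after transfection, depending on culture, given as normalised percent viability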
Reading the numbers: viability, normalised: higher = more viable cells remaining
Rule for the call: 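Active when normalised viability falls below 80 percent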
Calls: active = viability under 80%; inactive = viability 80% or more
Shown is an unselected part of the about 2,100 reagents, in one setting of the screen. 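Calls flag viability under 80% in either arm, not effects specific to rucaparib; the reference for percent is not stated.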 A reagent listed more than once was tested more than once; the source does not tell the runs apart. Not stated in the record: the 100% reference.

target gene	technical replicate	viability, normalised (%)	call
SMAD2 (SMAD family member 2)	1	45.4	active
SMAD2 (SMAD family member 2)	2	45.3	active
SMAD2 (SMAD family member 2)	3	51.7	active
RECQL (RecQ like helicase)	1	46.4	active
RECQL (RecQ like helicase)	1	80.1	inactive
RECQL (RecQ like helicase)	2	62	active
RECQL (RecQ like helicase)	2	33.6	active
RECQL (RecQ like helicase)	3	31	active
RECQL (RecQ like helicase)	3	69.7	active
PIK3CG	1	87.7	inactive
PIK3CG	2	91.1	inactive
PIK3CG	3	74.2	active
XPC	1	66.5	active
XPC	2	69.2	active
XPC	3	48.8	active
CENPO (centromere protein O)	1	75.4	active
CENPO (centromere protein O)	2	69.9	active
CENPO (centromere protein O)	3	72.5	active
CDC42BPA (CDC42 binding protein kinase alpha)	1	60.8	active
CDC42BPA (CDC42 binding protein kinase alpha)	2	53.3	active
CDC42BPA (CDC42 binding protein kinase alpha)	3	51	active
COX6C (cytochrome c oxidase subunit 6C)	1	55.8	active
COX6C (cytochrome c oxidase subunit 6C)	2	46.4	active
COX6C (cytochrome c oxidase subunit 6C)	3	56.1	active
TRIO (trio Rho guanine nucleotide exchange factor)	1	78.8	active
TRIO (trio Rho guanine nucleotide exchange factor)	2	60.7	active
TRIO (trio Rho guanine nucleotide exchange factor)	3	59.1	active
FANCF (FA complementation group F)	1	38.5	active
FANCF (FA complementation group F)	2	43	active
FANCF (FA complementation group F)	3	36.4	active
PDPK1 (3-phosphoinositide dependent protein kinase 1)	1	101	inactive
PDPK1 (3-phosphoinositide dependent protein kinase 1)	2	70.6	active
PDPK1 (3-phosphoinositide dependent protein kinase 1)	3	64.7	active
CAMKV (CaM kinase like vesicle associated)	1	53.1	active
CAMKV (CaM kinase like vesicle associated)	2	62.9	active
CAMKV (CaM kinase like vesicle associated)	3	55.8	active
HIPK2 (homeodomain interacting protein kinase 2)	1	79.5	active
HIPK2 (homeodomain interacting protein kinase 2)	2	58.1	active
HIPK2 (homeodomain interacting protein kinase 2)	3	54.9	active

6 of these entries, reformatted:
{"target gene":"XPC","technical replicate":"1","viability, normalised (%)":66.5,"call":"active"}
{"target gene":"XPC","technical replicate":"2","viability, normalised (%)":69.2,"call":"active"}
{"target gene":"XPC","technical replicate":"3","viability, normalised (%)":48.8,"call":"active"}
{"target gene":"CENPO (centromere protein O)","technical replicate":"1","viability, normalised (%)":75.4,"call":"active"}
{"target gene":"CENPO (centromere protein O)","technical replicate":"2","viability, normalised (%)":69.9,"call":"active"}
{"target gene":"CENPO (centromere protein O)","technical replicate":"3","viability, normalised (%)":72.5,"call":"active"}
